These results are taken from publication PMC10041115, “Cryo-EM structure of the four-subunit Rhodobacter sphaeroides cytochrome bc1 complex in styrene maleic acid nanodiscs” (Proceedings of the National Academy of Sciences of the …, 2023).

By UniProt entry, the sequences of proteins in these tests, tags left out. Where a name states a change or a piece, a line headed by the entry shows the natural chain unless it says otherwise.
UniProt Q3J2Z2: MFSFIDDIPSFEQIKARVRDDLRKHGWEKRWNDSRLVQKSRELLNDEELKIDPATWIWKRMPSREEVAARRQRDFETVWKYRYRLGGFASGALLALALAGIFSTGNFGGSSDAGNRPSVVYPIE

No constants are given. Whether binding was seen depends on the method and setting. Binding calls can cover weak binding; strength is not graded here. For some assays here: Sequences can lack the tags named with a protein.

The target of test [1] is T1, Rieske iron-sulfur protein subunit of the Rhodobacter sphaeroides cytochrome bc1 complex (Rhodobacter sphaeroides) (UniProt Q02762).
T1 sequence: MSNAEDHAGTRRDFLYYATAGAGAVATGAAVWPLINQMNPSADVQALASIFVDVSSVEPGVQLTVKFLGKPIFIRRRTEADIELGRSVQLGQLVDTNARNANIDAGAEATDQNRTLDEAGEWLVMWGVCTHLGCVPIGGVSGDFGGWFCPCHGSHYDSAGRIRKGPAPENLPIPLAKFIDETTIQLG
Put plainly: cryo-EM structure; purified four-subunit cyt bc1 in SMA native lipid nanodiscs, no inhibitors added, 20 mM Tris-HCl pH 8, 200 mM NaCl; C1 consensus map at 2.9 Å and a focused class at 3.75 Å (FSC 0.5); both purified.

Test [2] addresses T2, cytochrome c1 subunit of the Rhodobacter sphaeroides cytochrome bc1 complex, His10-tagged (Rhodobacter sphaeroides) (UniProt Q02760).
T2 sequence: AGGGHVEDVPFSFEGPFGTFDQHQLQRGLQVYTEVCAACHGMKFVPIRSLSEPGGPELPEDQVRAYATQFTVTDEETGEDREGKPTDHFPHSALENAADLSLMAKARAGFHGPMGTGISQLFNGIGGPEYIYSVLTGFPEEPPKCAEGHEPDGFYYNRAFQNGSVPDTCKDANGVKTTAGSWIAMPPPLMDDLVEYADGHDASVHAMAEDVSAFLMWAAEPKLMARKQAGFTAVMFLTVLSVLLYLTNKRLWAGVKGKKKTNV
Described as above.

On to “subunit IV of the Rhodobacter sphaeroides cytochrome bc1 complex (from UniProt Q3J2Z2)”, for which the binding result in test [1] and in test [2] was “binds” in each case.
